Reference: patent publication US5059653 (dated 1991)

What was measured:
[1] = general procedure: Boc solid-phase peptide synthesis; benzhydrylamine resin; diisopropylcarbodiimide; details: whole synthesis, scale 0.5 mmole, one disulfide bridge, sequence written open
[2] = general procedure: Boc solid-phase peptide synthesis; benzhydrylamine-polystyrene resin; diisopropylcarbodiimide; details: whole synthesis, scale 0.5 mmole, one disulfide bridge, sequence written open

Substance	isolated mass [1] [mg]	isolated mass [2] [mg]
D-Phe-Cys-Tyr-D-Trp-CH2 -NH-Lys-Val-Cys-Thr-NH2	63.4	
D-Phe-Cys-Tyr-D-Trp-Lys-CH2 NH- Val-Cys-Thr-NH2		78
